PMC7026407
No constants are given. Whether binding was seen depends on the method and setting.

The chains behind the UniProt entries cited, without tags or fusion partners. Residues count along the entry.
UniProt P18065, residues 36-325: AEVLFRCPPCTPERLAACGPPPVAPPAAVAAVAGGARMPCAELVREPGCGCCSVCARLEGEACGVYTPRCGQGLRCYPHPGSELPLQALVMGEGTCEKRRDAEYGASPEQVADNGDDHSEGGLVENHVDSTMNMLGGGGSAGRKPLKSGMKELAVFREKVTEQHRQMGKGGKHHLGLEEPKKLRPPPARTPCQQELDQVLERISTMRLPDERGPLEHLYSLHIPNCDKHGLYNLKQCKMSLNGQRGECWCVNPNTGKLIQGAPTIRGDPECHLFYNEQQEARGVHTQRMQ

Assays:
[1] = target: IGFBP-2 (UniProt P18065); assay: SPR; IGF binding protein or Fc fusion amine-coupled to a CM4 chip, growth factor as analyte; Biacore T100/T200; HBS-P, with 0.2 mg/ml BSA or 0.65 M NaCl to reduce non-specific binding; 25 °C; 1:1 binding fit; both purified
[2] = target: IGFBP-2 (UniProt P18065); assay: SPR; IGF binding protein or Fc fusion amine-coupled to a CM4 chip, growth factor as analyte; Biacore T100 or T200, HBS-P, BSA (0.2 mg/ml) or NaCl (0.65 M final) to reduce non-specific binding, 25 °C; 1:1 binding analysis; both purified
[3] = target: T1, IGFBP-7 (UniProt Q16270); assay: as above
T1 sequence: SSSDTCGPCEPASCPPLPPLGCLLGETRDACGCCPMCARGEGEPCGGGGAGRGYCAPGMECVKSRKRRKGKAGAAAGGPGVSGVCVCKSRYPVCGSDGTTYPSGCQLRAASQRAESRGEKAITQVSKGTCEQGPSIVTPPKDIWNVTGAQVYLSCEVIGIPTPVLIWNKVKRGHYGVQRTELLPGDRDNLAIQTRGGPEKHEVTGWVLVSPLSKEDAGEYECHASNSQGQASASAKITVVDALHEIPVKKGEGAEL

[4] = target: T1, IGFBP-7; assay: SPR; IGF binding protein or Fc fusion amine-coupled to a CM4 chip, growth factor as analyte; Biacore T100/T200; HBS-P, with 0.2 mg/ml BSA or 0.65 M NaCl to reduce non-specific binding; 25 °C; 1:1 binding fit; both purified

| Substance | binding [1] | binding [2] | binding [3] | binding [4] |
| --- | --- | --- | --- | --- |
| PDGF AB (from UniProt P04085 87-211; P01127 82-190) (complex) | no binding | – | – | – |
| PDGF AB (from UniProt P04085 87-211; P01127 82-190) (ligand) | – | no binding | – | – |
| hepatocyte growth factor (from UniProt P14210 32-728) (ligand) | – | no binding | – | – |
| insulin-like growth factor-1 (from UniProt P05019 49-118) (ligand) | – | – | no binding | no binding |
| insulin-like growth factor-2 (from UniProt P01344 25-91) (ligand) | – | – | no binding | no binding |
